For test [1], the target named is endogenous KLF5 (human (endogenous in C4-2 and CW22RV1)) (UniProt Q13887). The test can be described thus: co-IP; endogenous proteins in C4-2 and CW22RV1 cells; lysis buffer 50 mM Tris-HCl pH 7.5, 150 mM NaCl, 1% Nonidet P-40, 0.5% sodium deoxycholate; indicated antibodies and Protein G Plus beads, 4°C overnight; Western blot. For orientation: A western blot detects proteins with antibodies after separation by electrophoresis.

Sequences of proteins named here, by UniProt entry; tags and fusion partners are left off.
UniProt Q13887: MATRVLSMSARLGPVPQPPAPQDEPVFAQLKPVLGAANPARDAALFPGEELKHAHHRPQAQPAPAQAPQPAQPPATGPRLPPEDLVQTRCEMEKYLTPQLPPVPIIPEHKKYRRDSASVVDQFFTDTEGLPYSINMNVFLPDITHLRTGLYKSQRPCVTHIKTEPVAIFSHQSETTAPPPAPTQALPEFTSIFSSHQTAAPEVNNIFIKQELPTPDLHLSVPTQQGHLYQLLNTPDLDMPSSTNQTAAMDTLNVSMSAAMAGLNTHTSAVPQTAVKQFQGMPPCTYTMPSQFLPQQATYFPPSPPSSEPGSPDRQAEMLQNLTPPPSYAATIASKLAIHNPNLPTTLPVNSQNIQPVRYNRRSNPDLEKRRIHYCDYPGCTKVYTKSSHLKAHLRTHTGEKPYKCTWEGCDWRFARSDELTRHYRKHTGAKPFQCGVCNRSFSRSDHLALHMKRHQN
UniProt O15379: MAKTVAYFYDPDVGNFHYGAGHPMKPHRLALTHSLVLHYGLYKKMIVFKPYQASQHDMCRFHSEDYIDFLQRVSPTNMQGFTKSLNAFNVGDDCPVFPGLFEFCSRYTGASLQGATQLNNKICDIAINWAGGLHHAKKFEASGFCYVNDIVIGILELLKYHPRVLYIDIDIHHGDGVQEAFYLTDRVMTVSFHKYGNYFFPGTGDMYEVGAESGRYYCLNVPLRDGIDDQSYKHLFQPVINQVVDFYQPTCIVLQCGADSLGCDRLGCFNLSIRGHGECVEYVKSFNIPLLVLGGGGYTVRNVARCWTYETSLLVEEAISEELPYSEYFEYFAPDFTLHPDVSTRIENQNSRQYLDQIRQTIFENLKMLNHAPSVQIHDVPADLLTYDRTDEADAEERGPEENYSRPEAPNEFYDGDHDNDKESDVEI

In test [2] the target is Flag-linked KLF5 (exogenous KLF5) (UniProt Q13887). The experiment in a line: co-IP; exogenous Flag-linked KLF5 and pcDNA3-linked HDAC3 in HEK293 cells; lysis buffer 50 mM Tris-HCl pH 7.5, 150 mM NaCl, 1% Nonidet P-40, 0.5% sodium deoxycholate; indicated antibodies and Protein G Plus beads, 4°C overnight; Western blot.

No constants are given. Whether binding was seen depends on the method and setting. Binding seen in cells or lysates may run through a third protein. Some entries that bind do so weakly or less than the wild type.

With “endogenous HDAC3 (from UniProt O15379 1-428)”, in test [1], the binding entry is recorded as “binds”.

As to “pcDNA3-linked HDAC3 (from UniProt O15379 1-428)”, in test [2], the binding entry is on record as “binds”.

The values are drawn from paper PMC6735397.
